Reference: PubChem BioAssay AID248 (DTP/NCI, 2004)
The list shows only some results of the screen, not a fair sample: it is rich in T/C values a quarter to a half above the control, in often repeated tests (any T/C) and in doses without a T/C. Further doses and runs are listed elsewhere. T/C gives the treated animals as a percentage of the vehicle group. Some entries give survivors of the animals treated and no T/C: the source files T/C as zero there, which appears to mark a toxic dose or a test without result, not a measured value. Some survivor counts are full or nearly so, which does not show that the dose was tolerated: the source hardly ever lists a survival T/C far under the control, and the zero likely stands for such cases as well. Counts of survivors are from the toxicity check (mostly the fifth day) where no day follows; animals may have died later. Schedule codes are those of the source, read here as Q, the interval in days (D) or hours (H), X, the number of doses. Some entries were tested several times; the values are given in rising order. Some schedule codes hold Z or #, which are not explained here. Some structures stand for samples that the source files as different forms (salt, stereo form or complex); doses refer to the form tested. Where survival is the endpoint, the PubChem record calls one and a half times the control and up active, and a quarter to a half above the control has no call in these data; cut-offs in other NCI protocols can differ.

System: L1210 leukemia ip in BDF1 mice, survival T/C
Test: NCI In Vivo Anticancer Drug Screen. Data for tumor model L1210 Leukemia (intraperitoneal) in B6D2F1 (BDF1) mice
Details: T/C endpoint: mean survival time, higher T/C = longer survival
[1] = dose: 400.0 mg/kg/injection, schedule: Q04DX003 (ip), vehicle: Klucel (hydroxypropylcellulose) (HPC)
[2] = dose: 200.0 mg/kg/injection, schedule: Q01DX009 (ip), vehicle: Klucel (hydroxypropylcellulose) (HPC)
[3] = dose: 100.0 mg/kg/injection, schedule: Q04DX002 (ip), vehicle: carboxymethylcellulose (CMC)
[4] = dose: 200.0 mg/kg/injection, schedule: Q04DX002 (ip), vehicle: carboxymethylcellulose (CMC)
[5] = dose: 400.0 mg/kg/injection, schedule: Q01DX001 (ip), vehicle: saline

O=C(Nc1ccc(C(=O)Nc2ccc(C3=NCCN3)cc2)cc1)Nc1ccc(C2=NCCN2)cc1
T/C (dose: 15.0 mg/kg/injection, schedule: Q01DX Z (ip), vehicle: carboxymethylcellulose (CMC)): 140 % of control | T/C (dose: 15.0 mg/kg/injection, schedule: Q01DX Z (ip), vehicle: saline): 128 % of control | T/C (dose: 120.0 mg/kg/injection, schedule: Q01DX Z (sc), vehicle: saline): 125 % of control | survivor count (dose: 240.0 mg/kg/injection, schedule: Q01DX Z (ip), vehicle: saline): 2 of 6 | survivor count (dose: 480.0 mg/kg/injection, schedule: Q01DX Z (ip), vehicle: saline): 0 of 6 | T/C (dose: 480.0 mg/kg/injection, schedule: Q01DX Z (sc), vehicle: saline): 139 and 142 % of control | T/C (dose: 960.0 mg/kg/injection, schedule: Q01DX Z (sc), vehicle: saline): 132 % of control

CSc1nc(=O)[nH]nc1SCc1ccccc1
T/C (dose: 200.0 mg/kg/injection, schedule: Q01DX001 (ip), vehicle: carboxymethylcellulose (CMC)): 148 % of control

CN(C)CC/C=C1/c2ccccc2COc2ccccc21
survivor count (dose: 100.0 mg/kg/injection, schedule: Q01DX009 (ip), vehicle: saline): 0 of 6 | survivor count (dose: 200.0 mg/kg/injection, schedule: Q04DX003 (ip), vehicle: saline): 0 of 4 | survivor count (dose: 400.0 mg/kg/injection, schedule: Q04DX003 (ip), vehicle: saline): 0 of 4

CCN(CC)CCCC(C)NC/C=C/CNC(C)CCCN(CC)CC (configuration not stated)
survivor count (dose: 50.0 mg/kg/injection, schedule: Q01DX009 (ip), vehicle: water): 0 of 6 | survivor count (dose: 50.0 mg/kg/injection, schedule: Q04DX003 (ip), vehicle: water): 2 of 6 | survivor count (dose: 100.0 mg/kg/injection, schedule: Q01DX009 (ip), vehicle: water): 0 of 6 | survivor count (dose: 100.0 mg/kg/injection, schedule: Q04DX003 (ip), vehicle: water): 0 of 6 | survivor count (dose: 200.0 mg/kg/injection, schedule: Q04DX003 (ip), vehicle: water): 1 of 6 | survivor count (dose: 400.0 mg/kg/injection, schedule: Q04DX003 (ip), vehicle: water): 0 of 6

O=NN(CCCl)C(=O)NC1CCS(=O)(=O)C1 (configuration not stated) (tested in a mixture with another compound)
survivor count (dose: 100.0 mg/kg/injection, schedule: Q01DX001 (ip), vehicle: other): 6 of 10 | survivor count (dose: 150.0 mg/kg/injection, schedule: Q01DX001 (ip), vehicle: other): 4 of 10

NNP(=O)(Oc1ccccc1)Oc1ccccc1
survivor count (dose: 200.0 mg/kg/injection, schedule: Q01DX009 (ip), vehicle: saline): 6 of 6

O=C(CCl)N1CCN(C(=O)CCl)CC1
survivor count (dose: 40.0 mg/kg/injection, schedule: Q01DX009 (ip), vehicle: Klucel (hydroxypropylcellulose) (HPC)): 4 of 6 | survivor count (dose: 80.0 mg/kg/injection, schedule: Q04DX003 (ip), vehicle: Klucel (hydroxypropylcellulose) (HPC)): 0 of 6 | survivor count (dose: 100.0 mg/kg/injection, schedule: Q04DX003 (ip), vehicle: Klucel (hydroxypropylcellulose) (HPC)): 0 of 6 | survivor count (dose: 200.0 mg/kg/injection, schedule: Q04DX003 (ip), vehicle: Klucel (hydroxypropylcellulose) (HPC)): 0 of 6 | survivor count [1]: 0 of 6

O=C(Nc1ccc(C2=NCCN2)cc1)c1cc(C(=O)Nc2ccc(C3=NCCN3)cc2)ncn1
T/C (dose: 3.75 mg/kg/injection, schedule: Q01DX Z (ip), vehicle: carboxymethylcellulose (CMC)): 132 % of control | T/C (dose: 7.5 mg/kg/injection, schedule: Q01DX Z (ip), vehicle: carboxymethylcellulose (CMC)): 143 % of control | survivor count (dose: 60.0 mg/kg/injection, schedule: Q01DX015 (ip), vehicle: methylcellulose (MC)): 1 of 6 | survivor count (dose: 75.0 mg/kg/injection, schedule: Q01DX001 (ip), vehicle: methylcellulose (MC)): 2 of 6 | T/C (dose: 79.0 mg/kg/injection, schedule: Q01DX001 (ip), vehicle: other): 138 % of control | T/C (dose: 120.0 mg/kg/injection, schedule: Q01DX001 (ip), vehicle: carboxymethylcellulose (CMC)): 143 % of control | T/C (dose: 120.0 mg/kg/injection, schedule: Q01DX001 (ip), vehicle: other): 143 % of control | survivor count (dose: 120.0 mg/kg/injection, schedule: Q01DX015 (ip), vehicle: methylcellulose (MC)): 0 of 6 | survivor count (dose: 120.0 mg/kg/injection, schedule: Q01DX015 (ip), vehicle: other): 0 of 6 | survivor count (dose: 150.0 mg/kg/injection, schedule: Q01DX001 (ip), vehicle: methylcellulose (MC)): 0 of 6 | T/C (dose: 270.0 mg/kg/injection, schedule: Q01DX001 (ip), vehicle: other): 149 % of control | survivor count (dose: 300.0 mg/kg/injection, schedule: Q01DX001 (ip), vehicle: methylcellulose (MC)): 0 of 6 | survivor count (dose: 405.0 mg/kg/injection, schedule: Q01DX001 (ip), vehicle: other): 0 of 10

CC(O)C(NCNC(=O)C1=C(O)C2(O)C(=O)C3=C(O)c4c(O)cccc4C(C)(O)C3CC2C(N(C)C)C1=O)C(=O)O (configuration not stated)
survivor count (dose: 112.0 mg/kg/injection, schedule: Q01DX Z (ip), vehicle: saline): 6 of 6 | T/C (dose: 960.0 mg/kg/injection, schedule: Q01DX Z (ip), vehicle: saline): 126 % of control

O=C(O)CS(=O)(=O)CC(=O)O
survivor count (dose: 400.0 mg/kg/injection, schedule: Q04DX003 (ip), vehicle: saline with Tween-80): 0 of 6

O=C(NCCCl)NC1CCc2ccccc21 (configuration not stated)
survivor count [1]: 5 of 6

CCCCCCCCCCCCO[P+](=O)OCCCCCCCCCCCC
survivor count (dose: 400.0 mg/kg/injection, schedule: Q01DX009 (ip), vehicle: saline sonified): 6 of 6 | survivor count (dose: 500.0 mg/kg/injection, schedule: Q01DX Z (ip), vehicle: methylcellulose (MC)): 3 of 6

CCOC(=O)c1ccc(N=NN(C)C(C)CC)cc1 (configuration not stated)
T/C (dose: 100.0 mg/kg/injection, schedule: Q01DX009 (ip), vehicle: Klucel (hydroxypropylcellulose) (HPC)): 125 % of control | T/C [2]: 133 % of control

COC(=N)c1ccc(Cl)cc1
survivor count (dose: 400.0 mg/kg/injection, schedule: Q01DX009 (ip), vehicle: saline with Tween-80): 3 of 6

CC1=CC(C)(C)NC(=S)N1c1cc(Cl)ccc1Cl
survivor count (dose: 750.0 mg/kg/injection, schedule: Q01DX Z (ip), vehicle: methylcellulose (MC)): 5 of 6

Cc1ccc(C)c(NC(=O)Oc2ccc(F)cc2Cl)c1
survivor count [1]: 3 of 6

CCCC(CCC)=NCCCO
survivor count (dose: 300.0 mg/kg/injection, schedule: Q01DX001 (ip), vehicle: carboxymethylcellulose (CMC)): 0 of 6

CCNC(=O)NCc1ccc(Cl)c(Cl)c1
survivor count (dose: 400.0 mg/kg/injection, schedule: Q04DX002 (ip), vehicle: Klucel (hydroxypropylcellulose) (HPC)): 1 of 3

CCOC(=O)C(Cc1ccc2ccccc2n1)C(C)=O (configuration not stated)
survivor count (dose: 200.0 mg/kg/injection, schedule: Q01DX009 (ip), vehicle: DMSO): 1 of 3

CCCCOP(=O)(OCCCC)Oc1cccc([N+](=O)[O-])c1
T/C (dose: 25.0 mg/kg/injection, schedule: Q04DX002 (ip), vehicle: carboxymethylcellulose (CMC)): 93, 100, 103, 107 % of control | survivor count (dose: 50.0 mg/kg/injection, schedule: Q04DX002 (ip), vehicle: carboxymethylcellulose (CMC)): 4 of 6 and 3 of 3 | survivor count (dose: 100.0 mg/kg/injection, schedule: Q01DX001 (ip), vehicle: carboxymethylcellulose (CMC)): 3 of 6 | T/C [3]: 100 % of control | survivor count [3]: 0 of 3, 1 of 6, 2 of 6 | survivor count [4]: 0 of 3 and 0 of 6 | survivor count (dose: 400.0 mg/kg/injection, schedule: Q04DX002 (ip), vehicle: carboxymethylcellulose (CMC)): 0 of 3 and 1 of 6

CN(C)CCNCc1ccccc1
survivor count (dose: 150.0 mg/kg/injection, schedule: Q01DX001 (ip), vehicle: saline): 2 of 6 | survivor count (dose: 200.0 mg/kg/injection, schedule: Q01DX001 (ip), vehicle: saline): 1 of 6 | survivor count [5]: 1 of 6

CN(CC#CCOc1ccc(Cl)cc1)c1ccccc1
survivor count [3]: 3 of 3 | survivor count [4]: 3 of 3

CC1CCCC/C1=N/NC(N)=O (configuration not stated)
survivor count [2]: 2 of 6 | survivor count (dose: 400.0 mg/kg/injection, schedule: Q01DX009 (ip), vehicle: Klucel (hydroxypropylcellulose) (HPC)): 1 of 6

[N-]=[N+]=C1N=NC=C1C(N)=O
survivor count [5]: 0 of 4
